Measurements as given in PMC10628465.
No constants are given. Whether binding was seen depends on the method and setting. In cells and extracts the contact can be indirect. These calls come from enrichment with a bait or labelling near it, and not all partners need be listed. For some of these results: No binding means not detected with the bait.

By UniProt entry, the sequences of proteins in these tests, tags left out.
UniProt P07355: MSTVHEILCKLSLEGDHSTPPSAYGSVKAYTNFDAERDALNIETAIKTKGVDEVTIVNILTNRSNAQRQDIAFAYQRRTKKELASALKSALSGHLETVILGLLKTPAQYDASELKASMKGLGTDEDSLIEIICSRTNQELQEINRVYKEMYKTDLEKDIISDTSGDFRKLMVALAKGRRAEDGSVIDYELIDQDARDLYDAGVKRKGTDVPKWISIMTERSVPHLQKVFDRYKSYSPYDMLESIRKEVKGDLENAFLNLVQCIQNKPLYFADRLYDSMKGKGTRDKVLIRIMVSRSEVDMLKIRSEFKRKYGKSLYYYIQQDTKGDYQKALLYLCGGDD
UniProt Q04695: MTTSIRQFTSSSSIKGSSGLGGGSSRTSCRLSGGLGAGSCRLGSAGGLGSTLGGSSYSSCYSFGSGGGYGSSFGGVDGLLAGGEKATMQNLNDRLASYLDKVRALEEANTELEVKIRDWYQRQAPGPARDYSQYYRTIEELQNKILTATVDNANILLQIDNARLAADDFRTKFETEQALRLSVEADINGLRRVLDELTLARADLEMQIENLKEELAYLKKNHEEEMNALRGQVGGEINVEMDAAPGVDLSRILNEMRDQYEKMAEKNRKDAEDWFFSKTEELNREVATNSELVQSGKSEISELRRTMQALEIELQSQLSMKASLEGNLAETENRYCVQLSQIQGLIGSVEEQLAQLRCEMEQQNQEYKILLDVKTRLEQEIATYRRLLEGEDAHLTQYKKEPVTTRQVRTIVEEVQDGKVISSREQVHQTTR
UniProt P11142: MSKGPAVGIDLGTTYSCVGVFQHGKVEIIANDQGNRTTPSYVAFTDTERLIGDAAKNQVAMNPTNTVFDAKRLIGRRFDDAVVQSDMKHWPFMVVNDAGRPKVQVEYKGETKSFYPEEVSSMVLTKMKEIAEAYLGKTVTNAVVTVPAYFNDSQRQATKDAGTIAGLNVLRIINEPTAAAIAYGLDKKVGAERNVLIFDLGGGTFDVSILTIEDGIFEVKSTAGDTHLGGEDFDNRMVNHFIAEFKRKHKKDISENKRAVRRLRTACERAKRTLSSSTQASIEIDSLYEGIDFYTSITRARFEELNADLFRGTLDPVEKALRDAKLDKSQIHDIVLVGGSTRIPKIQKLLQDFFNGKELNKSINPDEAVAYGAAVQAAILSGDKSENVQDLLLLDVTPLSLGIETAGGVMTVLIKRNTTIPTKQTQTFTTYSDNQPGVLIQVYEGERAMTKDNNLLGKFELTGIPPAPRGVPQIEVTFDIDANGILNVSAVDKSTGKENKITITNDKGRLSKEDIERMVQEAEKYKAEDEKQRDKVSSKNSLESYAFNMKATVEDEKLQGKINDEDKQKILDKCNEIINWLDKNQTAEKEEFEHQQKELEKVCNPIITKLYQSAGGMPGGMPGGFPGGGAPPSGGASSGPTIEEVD
UniProt P15924: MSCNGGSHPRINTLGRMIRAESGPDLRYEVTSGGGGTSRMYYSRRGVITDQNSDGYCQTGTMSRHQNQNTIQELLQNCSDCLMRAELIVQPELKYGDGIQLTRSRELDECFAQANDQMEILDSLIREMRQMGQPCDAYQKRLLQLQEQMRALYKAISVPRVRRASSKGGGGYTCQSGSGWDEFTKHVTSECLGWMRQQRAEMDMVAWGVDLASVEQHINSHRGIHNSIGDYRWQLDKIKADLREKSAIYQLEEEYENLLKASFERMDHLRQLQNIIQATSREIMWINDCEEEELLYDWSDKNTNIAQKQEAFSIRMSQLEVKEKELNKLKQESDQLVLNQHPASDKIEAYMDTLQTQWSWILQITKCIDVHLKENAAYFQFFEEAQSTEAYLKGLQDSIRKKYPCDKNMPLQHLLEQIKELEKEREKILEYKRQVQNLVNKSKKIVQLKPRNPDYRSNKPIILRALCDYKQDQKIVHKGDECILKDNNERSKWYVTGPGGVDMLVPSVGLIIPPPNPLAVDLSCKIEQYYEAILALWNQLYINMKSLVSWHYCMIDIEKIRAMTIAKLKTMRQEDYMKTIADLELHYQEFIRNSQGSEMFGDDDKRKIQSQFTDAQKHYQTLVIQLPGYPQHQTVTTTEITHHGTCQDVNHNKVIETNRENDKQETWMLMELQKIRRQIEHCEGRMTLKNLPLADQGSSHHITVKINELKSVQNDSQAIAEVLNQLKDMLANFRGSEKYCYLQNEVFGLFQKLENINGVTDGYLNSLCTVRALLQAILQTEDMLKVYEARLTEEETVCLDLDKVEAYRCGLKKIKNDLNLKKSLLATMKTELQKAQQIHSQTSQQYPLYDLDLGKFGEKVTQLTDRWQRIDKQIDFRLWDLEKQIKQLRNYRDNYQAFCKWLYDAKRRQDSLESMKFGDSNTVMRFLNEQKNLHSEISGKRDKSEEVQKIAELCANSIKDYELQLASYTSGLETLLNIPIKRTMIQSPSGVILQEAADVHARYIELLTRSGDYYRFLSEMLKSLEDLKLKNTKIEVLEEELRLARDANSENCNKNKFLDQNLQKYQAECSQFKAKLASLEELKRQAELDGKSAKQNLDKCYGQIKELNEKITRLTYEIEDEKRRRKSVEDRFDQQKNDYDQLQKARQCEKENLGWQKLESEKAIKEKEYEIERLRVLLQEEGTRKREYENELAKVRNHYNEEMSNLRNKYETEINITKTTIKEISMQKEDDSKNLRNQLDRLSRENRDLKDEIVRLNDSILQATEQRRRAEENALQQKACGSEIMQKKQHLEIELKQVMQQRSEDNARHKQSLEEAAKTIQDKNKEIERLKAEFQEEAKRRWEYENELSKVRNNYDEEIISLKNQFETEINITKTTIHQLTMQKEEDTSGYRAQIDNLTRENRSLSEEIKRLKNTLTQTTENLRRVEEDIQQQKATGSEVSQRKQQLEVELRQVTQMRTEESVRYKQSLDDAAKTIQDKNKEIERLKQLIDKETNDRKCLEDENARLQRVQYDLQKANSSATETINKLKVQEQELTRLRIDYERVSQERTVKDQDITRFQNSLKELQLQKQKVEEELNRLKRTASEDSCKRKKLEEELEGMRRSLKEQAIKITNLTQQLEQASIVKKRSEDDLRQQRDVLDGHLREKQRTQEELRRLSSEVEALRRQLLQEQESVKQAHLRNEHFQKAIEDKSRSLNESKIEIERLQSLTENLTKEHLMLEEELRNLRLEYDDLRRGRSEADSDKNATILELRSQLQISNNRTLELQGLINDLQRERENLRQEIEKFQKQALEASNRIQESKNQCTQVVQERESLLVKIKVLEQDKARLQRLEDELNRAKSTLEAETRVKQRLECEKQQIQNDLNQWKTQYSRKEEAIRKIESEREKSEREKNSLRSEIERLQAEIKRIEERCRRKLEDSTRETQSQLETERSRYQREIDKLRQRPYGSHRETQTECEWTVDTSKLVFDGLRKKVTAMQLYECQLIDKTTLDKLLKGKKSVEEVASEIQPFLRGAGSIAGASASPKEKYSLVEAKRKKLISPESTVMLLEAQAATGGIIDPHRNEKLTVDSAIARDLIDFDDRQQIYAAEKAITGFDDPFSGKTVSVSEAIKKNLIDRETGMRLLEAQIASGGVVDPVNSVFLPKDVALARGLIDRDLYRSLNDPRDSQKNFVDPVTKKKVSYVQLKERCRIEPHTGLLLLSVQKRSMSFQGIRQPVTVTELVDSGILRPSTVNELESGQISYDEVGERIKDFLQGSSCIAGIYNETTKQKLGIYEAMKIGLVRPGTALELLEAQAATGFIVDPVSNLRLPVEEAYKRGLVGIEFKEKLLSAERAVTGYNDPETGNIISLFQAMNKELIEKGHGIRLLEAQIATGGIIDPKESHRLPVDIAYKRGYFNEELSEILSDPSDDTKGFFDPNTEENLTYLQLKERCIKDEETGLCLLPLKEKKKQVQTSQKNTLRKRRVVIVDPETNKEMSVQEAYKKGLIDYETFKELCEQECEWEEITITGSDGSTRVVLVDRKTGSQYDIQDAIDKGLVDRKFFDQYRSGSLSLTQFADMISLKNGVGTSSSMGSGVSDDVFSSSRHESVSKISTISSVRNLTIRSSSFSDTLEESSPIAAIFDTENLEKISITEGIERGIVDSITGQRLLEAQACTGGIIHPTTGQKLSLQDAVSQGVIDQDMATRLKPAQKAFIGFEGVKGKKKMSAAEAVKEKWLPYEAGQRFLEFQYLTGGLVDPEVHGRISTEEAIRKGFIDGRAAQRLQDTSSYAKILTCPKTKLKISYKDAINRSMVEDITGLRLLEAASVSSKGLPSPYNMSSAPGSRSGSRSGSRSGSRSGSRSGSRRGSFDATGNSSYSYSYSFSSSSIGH
UniProt Q14008: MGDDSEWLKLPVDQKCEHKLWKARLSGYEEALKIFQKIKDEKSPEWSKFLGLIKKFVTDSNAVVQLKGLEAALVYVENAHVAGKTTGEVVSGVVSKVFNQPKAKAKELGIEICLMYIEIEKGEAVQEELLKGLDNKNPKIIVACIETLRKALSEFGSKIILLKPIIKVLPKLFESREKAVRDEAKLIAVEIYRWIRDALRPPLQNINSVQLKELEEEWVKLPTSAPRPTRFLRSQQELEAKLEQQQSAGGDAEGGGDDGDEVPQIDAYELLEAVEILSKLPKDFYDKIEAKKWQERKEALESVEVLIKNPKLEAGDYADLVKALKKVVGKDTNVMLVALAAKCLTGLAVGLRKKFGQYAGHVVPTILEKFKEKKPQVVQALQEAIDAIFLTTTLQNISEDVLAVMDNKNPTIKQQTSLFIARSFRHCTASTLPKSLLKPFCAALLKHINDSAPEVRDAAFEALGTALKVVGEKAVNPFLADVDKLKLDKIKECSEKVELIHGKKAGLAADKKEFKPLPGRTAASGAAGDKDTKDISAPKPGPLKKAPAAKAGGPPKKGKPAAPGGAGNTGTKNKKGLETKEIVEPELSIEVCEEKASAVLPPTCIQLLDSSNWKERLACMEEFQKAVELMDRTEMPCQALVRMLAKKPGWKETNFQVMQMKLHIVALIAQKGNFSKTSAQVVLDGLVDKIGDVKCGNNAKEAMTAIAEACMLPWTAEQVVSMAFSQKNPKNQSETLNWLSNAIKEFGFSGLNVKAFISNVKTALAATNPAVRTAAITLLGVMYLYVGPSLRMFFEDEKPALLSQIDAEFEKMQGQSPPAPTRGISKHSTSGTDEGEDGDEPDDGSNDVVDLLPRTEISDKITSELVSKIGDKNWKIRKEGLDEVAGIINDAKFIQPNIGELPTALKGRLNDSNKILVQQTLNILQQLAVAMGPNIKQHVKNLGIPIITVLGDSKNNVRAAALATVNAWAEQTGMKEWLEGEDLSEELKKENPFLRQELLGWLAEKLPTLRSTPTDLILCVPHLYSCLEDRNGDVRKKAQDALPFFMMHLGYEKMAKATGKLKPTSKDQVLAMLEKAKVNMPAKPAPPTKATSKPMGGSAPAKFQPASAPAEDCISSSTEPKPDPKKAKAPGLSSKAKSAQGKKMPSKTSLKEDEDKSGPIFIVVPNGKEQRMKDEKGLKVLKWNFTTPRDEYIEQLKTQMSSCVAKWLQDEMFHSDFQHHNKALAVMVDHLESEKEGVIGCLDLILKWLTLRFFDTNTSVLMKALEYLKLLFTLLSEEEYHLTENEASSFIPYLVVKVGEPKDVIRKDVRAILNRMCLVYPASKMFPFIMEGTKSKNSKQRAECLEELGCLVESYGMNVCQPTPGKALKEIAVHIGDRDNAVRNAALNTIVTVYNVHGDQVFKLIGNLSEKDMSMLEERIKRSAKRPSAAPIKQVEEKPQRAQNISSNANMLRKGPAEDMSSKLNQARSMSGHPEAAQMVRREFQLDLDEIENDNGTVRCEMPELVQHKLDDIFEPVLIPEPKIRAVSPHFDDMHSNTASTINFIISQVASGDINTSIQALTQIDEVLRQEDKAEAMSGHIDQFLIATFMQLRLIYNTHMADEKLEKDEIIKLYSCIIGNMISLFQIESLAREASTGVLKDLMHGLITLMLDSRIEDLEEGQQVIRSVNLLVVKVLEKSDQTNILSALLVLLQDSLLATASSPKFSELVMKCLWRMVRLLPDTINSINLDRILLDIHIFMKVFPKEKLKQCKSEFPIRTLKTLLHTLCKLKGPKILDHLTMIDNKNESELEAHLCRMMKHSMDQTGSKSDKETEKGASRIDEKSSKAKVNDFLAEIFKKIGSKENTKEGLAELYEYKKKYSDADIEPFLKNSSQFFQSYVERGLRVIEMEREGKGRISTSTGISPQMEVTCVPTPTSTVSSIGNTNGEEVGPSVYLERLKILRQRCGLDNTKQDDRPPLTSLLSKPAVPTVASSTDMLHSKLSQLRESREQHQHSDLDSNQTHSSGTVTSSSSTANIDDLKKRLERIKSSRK

B1: DExH-Box Helicase 29 (protein, UniProt Q7Z478 1-1369)
chain: MGGKNKKHKAPAAAVVRAAVSASRAKSAEAGIAGEAQSKKPVSRPATAAAAAAGSREPRVKQGPKIYSFNSTNDSSGPANLDKSILKVVINNKLEQRIIGVINEHKKQNNDKGMISGRLTAKKLQDLYMALQAFSFKTKDIEDAMTNTLLYGGDLHSALDWLCLNLSDDALPEGFSQEFEEQQPKSRPKFQSPQIQATISPPLQPKTKTYEEDPKSKPKKEEKNMEVNMKEWILRYAEQQNEEEKNENSKSLEEEEKFDPNERYLHLAAKLLDAKEQAATFKLEKNKQGQKEAQEKIRKFQREMETLEDHPVFNPAMKISHQQNERKKPPVATEGESALNFNLFEKSAAATEEEKDKKKEPHDVRNFDYTARSWTGKSPKQFLIDWVRKNLPKSPNPSFEKVPVGRYWKCRVRVIKSEDDVLVVCPTILTEDGMQAQHLGATLALYRLVKGQSVHQLLPPTYRDVWLEWSDAEKKREELNKMETNKPRDLFIAKLLNKLKQQQQQQQQHSENKRENSEDPEESWENLVSDEDFSALSLESANVEDLEPVRNLFRKLQSTPKYQKLLKERQQLPVFKHRDSIVETLKRHRVVVVAGETGSGKSTQVPHFLLEDLLLNEWEASKCNIVCTQPRRISAVSLANRVCDELGCENGPGGRNSLCGYQIRMESRACESTRLLYCTTGVLLRKLQEDGLLSNVSHVIVDEVHERSVQSDFLLIILKEILQKRSDLHLILMSATVDSEKFSTYFTHCPILRISGRSYPVEVFHLEDIIEETGFVLEKDSEYCQKFLEEEEEVTINVTSKAGGIKKYQEYIPVQTGAHADLNPFYQKYSSRTQHAILYMNPHKINLDLILELLAYLDKSPQFRNIEGAVLIFLPGLAHIQQLYDLLSNDRRFYSERYKVIALHSILSTQDQAAAFTLPPPGVRKIVLATNIAETGITIPDVVFVIDTGRTKENKYHESSQMSSLVETFVSKASALQRQGRAGRVRDGFCFRMYTRERFEGFMDYSVPEILRVPLEELCLHIMKCNLGSPEDFLSKALDPPQLQVISNAMNLLRKIGACELNEPKLTPLGQHLAALPVNVKIGKMLIFGAIFGCLDPVATLAAVMTEKSPFTTPIGRKDEADLAKSALAMADSDHLTIYNAYLGWKKARQEGGYRSEITYCRRNFLNRTSLLTLEDVKQELIKLVKAAGFSSSTTSTSWEGNRASQTLSFQEIALLKAVLVAGLYDNVGKIIYTKSVDVTEKLACIVETAQGKAQVHPSSVNRDLQTHGWLLYQEKIRYARVYLRETTLITPFPVLLFGGDIEVQHRERLLSIDGWIYFQAPVKIAVIFKQLRVLIDSVLRKKLENPKMSLENDKILQIITELIKTENN
B2: Ataxin-2-like protein (protein, UniProt Q8WWM7 1-1075)
chain: MLKPQPLQQPSQPQQPPPTQQAVARRPPGGTSPPNGGLPGPLATSAAPPGPPAAASPCLGPVAAAGSGLRRGAEGILAPQPPPPQQHQERPGAAAIGSARGQSTGKGPPQSPVFEGVYNNSRMLHFLTAVVGSTCDVKVKNGTTYEGIFKTLSSKFELAVDAVHRKASEPAGGPRREDIVDTMVFKPSDVMLVHFRNVDFNYATKDKFTDSAIAMNSKVNGEHKEKVLQRWEGGDSNSDDYDLESDMSNGWDPNEMFKFNEENYGVKTTYDSSLSSYTVPLEKDNSEEFRQRELRAAQLAREIESSPQYRLRIAMENDDGRTEEEKHSAVQRQGSGRESPSLASREGKYIPLPQRVREGPRGGVRCSSSRGGRPGLSSLPPRGPHHLDNSSPGPGSEARGINGGPSRMSPKAQRPLRGAKTLSSPSNRPSGETSVPPPPAVGRMYPPRSPKSAAPAPISASCPEPPIGSAVPTSSASIPVTSSVSDPGVGSISPASPKISLAPTDVKELSTKEPGRTLEPQELARIAGKVPGLQNEQKRFQLEELRKFGAQFKLQPSSSPENSLDPFPPRILKEEPKGKEKEVDGLLTSEPMGSPVSSKTESVSDKEDKPPLAPSGGTEGPEQPPPPCPSQTGSPPVGLIKGEDKDEGPVAEQVKKSTLNPNAKEFNPTKPLLSVNKSTSTPTSPGPRTHSTPSIPVLTAGQSGLYSPQYISYIPQIHMGPAVQAPQMYPYPVSNSVPGQQGKYRGAKGSLPPQRSDQHQPASAPPMMQAAAAAGPPLVAATPYSSYIPYNPQQFPGQPAMMQPMAHYPSQPVFAPMLQSNPRMLTSGSHPQAIVSSSTPQYPSAEQPTPQALYATVHQSYPHHATQLHAHQPQPATTPTGSQPQSQHAAPSPVQHQAGQAPHLGSGQPQQNLYHPGALTGTPPSLPPGPSAQSPQSSFPQPAAVYAIHHQQLPHGFTNMAHVTQAHVQTGITAAPPPHPGAPHPPQVMLLHPPQSHGGPPQGAVPQSGVPALSASTPSPYPYIGHPQGEQPGQAPGFPGGADDRIREFSLAGGIWHGRAEGLQVGQDARVLGGE

molecular target: Annexin A2 (human (endogenous in MDA-MB-231)) (UniProt P07355); assay: condition: only cells plated on uncoated plastic, without collagen-I; affinity purification with mass spectrometry; as a1, only the sample from cells grown on uncoated plates (no collagen-I)

binding, no binding:
Keratin 17 (from UniProt Q04695 1-432)

molecular target: Annexin A2 (human (endogenous in MDA-MB-231)) (UniProt P07355); assay: affinity purification with mass spectrometry; anti-Annexin A2 antibody (ab41803) and protein G agarose beads in pre-cleared MDA-MB-231 lysate overnight at 4°C; cells grown on uncoated or collagen-I-coated plates; proteins of the no-antibody blank subtracted; cut-off of 4 or more peptide matches

binding, binds:
Heat Shock Protein Family A (Hsp70) Member 8 (from UniProt P11142 1-646)
Keratin 17 (from UniProt Q04695 1-432)
fibronectin (from UniProt P02751 32-2477)
Tight junction protein ZO-2 (from UniProt Q9UDY2 1-1190)
Thrombospondin-1 (from UniProt P07996 19-1170)
Desmoplakin (from UniProt P15924 1-2871)
Cytoskeleton-associated protein 5 (from UniProt Q14008 1-2032)
B1
B2
